Data reported in patent publication US20150284347A1, “NEW BENZENE SULFONAMIDE THIAZOLE COMPOUNDS” (INSERM (INSTITUT NATIONAL DE LA SANTÉ ET DE LA RECHERCHE …, priority 2012, published 2015).
For at least one compound, name, drawing or mass did not settle the structure. Some of these results come from one statement about several compounds together.

Tests used:
A375 melanoma cells = experiment: A375 melanoma xenograft tumor development in nude mice; format: in vivo, mouse; details: athymic nude mice; for tumor size: 24 days after injection, 0.7 mg/mouse/day, FIG. 3
Experimental: To assess a potential antineoplastic effect of (HA15) and (SR50) in vivo, A375 melanoma cells (2.5×10^6) were injected subcutaneously in 6-week-old female athymic nude mice and treated 5 days later by injection of vehicle (labrafil) or different compounds such as PLX4032, (HA15) and (SR50) (0.7 mg/mouse/day) over a period of 24 days. Inhibitory effect is expressed as the tumor volume (mm^3) on day 8, 11, 15, 18, 22 and 24.
Athymic BALB/C nu/nu mice (Harlan) were used. The animals were 6 weeks old and weighed between 20 and 25 g. The mice were housed in the animal's C3M in a 12 h/12 h cycle. The animals received water and food ad libitum. Mice were first acclimated for one week and then injected with A375 cells (2.5 million cells in 200 μl of PBS) subcutaneously into the right and left sides. Treatment was started eight days after injection of cancer cells (when tumors were visible). The various compounds were diluted in a mixture of Labrafil (90%) (Gattefosse), Tween 80 (1%) and N,N-Dimethylacetamide (9%). Five groups of six mice treated every day intraperitoneally with 0.7 mg/day of PLX4032, SR44 (HA15), SR47 (HA32), SR50 (JG25) or with the mixture of Labrafil in control were defined. Three times a week the tumor size was measured using a caliper.
To assess a potential antineoplastic effect of [HA15] and [SR50] in vivo, A375 melanoma cells (2.5×10^6) were injected subcutaneously in 6-week-old female athymic nude mice and treated 5 days later by injection of vehicle (labrafil) or different compounds such as PLX4032, [HA15] and [SR50] (0.7 mg/mouse/day) over a period of 24 days. PLX4032 also known as RO5185426 or vemurafenib, is a drug authorized since August 2011 for the treatment of melanoma and is used here as a positive control. Untreated control mice rapidly developed visible tumors, and dramatic tumor growth is observed throughout the course of the study. […] Indeed, the tumor size was more than 500 mm^3 24 days after injection of labrafil against less than 100 mm^3 24 days after injection of [HA15], [SR50] and PLX4032.

prostate cells LNCAP = experiment: Trypan blue cell viability, LNCAP; format: cell-based; details: 10 μM, trypan blue exclusion, FIG. 1
Experimental: (§1) Cell viability was assessed by measuring the number of cells alive in samples of two different kind of prostate cells, respectively noted LNCAP and PC3, of breast cells noted MCF7, of colon cells noted HT29, of metastatic melanoma cell lines A375 and of melanoma cells from patients noted GIC. The measure of cell viability as performed by cell counting using the trypan blue exclusion method. Results were expressed as the percentage of cells alive relatively to the number of living cells in the presence of DMSO, which corresponds to the negative control associated to the 100% value. Cells were seeded in 6-well plates (60000 cells/well), depleted and incubated with compounds for the times indicated. Then cells were detached in the presence of 2000 of […] (Thermo) and 2 ml of RPMI 1640 Glutamax (Gibco) was added to the cell solution. 100 of this solution was stained for 1 minute with 100 of 0.4% trypan blue before counting with a Malassez chamber. The effect of compound on cell viability was studied on different types of cells. […] Cancer cells from prostate, breast, colon and melanoma A375 came from cell lines cultures. […] Results are expressed as percentage of cells alive relatively to the number of living cells in the presence of DMSO, which corresponds to the negative control associated to the 100% value. […]

prostate cells PC3 = experiment: Trypan blue cell viability, PC3; format: cell-based; details: 10 μM, PC3, trypan blue exclusion, FIG. 1
Experimental: as §1

breast cells MCF7 = experiment: Trypan blue cell viability, MCF7; format: cell-based; details: 10 μM, MCF7, trypan blue exclusion, FIG. 1
Experimental: as §1

colon cells HT29 = experiment: Trypan blue cell viability, HT29; format: cell-based; details: 10 μM, HT29, trypan blue exclusion, FIG. 1
Experimental: as §1

[1] = test system: metastatic melanoma cell line A375; experiment: Trypan blue cell viability, A375; format: cell-based; details: 10 μM, A375, trypan blue exclusion, FIG. 1
[2] = test system: melanoma cells from patients GIC; experiment: Trypan blue cell viability, patient melanoma cells GIC; format: cell-based, human; details: 10 μM, trypan blue exclusion, FIG. 1
Experimental: Cell viability was assessed by measuring the number of cells alive in samples of two different kind of prostate cells, respectively noted LNCAP and PC3, of breast cells noted MCF7, of colon cells noted HT29, of metastatic melanoma cell lines A375 and of melanoma cells from patients noted GIC. The measure of cell viability as performed by cell counting using the trypan blue exclusion method. Results were expressed as the percentage of cells alive relatively to the number of living cells in the presence of DMSO, which corresponds to the negative control associated to the 100% value. Patient melanoma cells were prepared from biopsy after digestion for 1-2 h with collagenase A (0.33 U/ml), dispase (0.85 U/ml) and Dnase I (144 U/ml) at 37° C. Large debris were removed by filtration through a […] cell strainer. Cells were seeded in 6-well plates (60000 cells/well), depleted and incubated with compounds for the times indicated. Then cells were detached in the presence of 2000 of […] (Thermo) and 2 ml of RPMI 1640 Glutamax (Gibco) was added to the cell solution. 100 of this solution was stained for 1 minute with 100 of 0.4% trypan blue before counting with a Malassez chamber. […] Results are expressed as percentage of cells alive relatively to the number of living cells in the presence of DMSO, which corresponds to the negative control associated to the 100% value. […]

SMILES: CC(=O)Nc1nc(-c2cccc(NS(=O)(=O)c3cccc4c(N(C)C)cccc34)c2)cs1 [HA15, N-(4-(3-(5-(dimethylamino)naphthalene-1-sulfonamido)phenyl)thiazol-2-yl)acetamide]
- tumor size (A375 melanoma cells): less than 100 mm^3

SMILES: CCCS(=O)(=O)Nc1ccc(F)c(C(=O)c2c[nH]c3ncc(-c4ccc(Cl)cc4)cc23)c1F [PLX4032, vemurafenib, reference compound]
- ability of cells to develop visible tumors (A375 melanoma cells; 0.7 mg/mouse/day over 24 days): markedly attenuated
- tumor size (A375 melanoma cells): less than 100 mm^3

SMILES: CC(=O)Nc1nc(-c2cccc(NS(=O)(=O)c3ccc(C)cc3)c2)cs1 [SR50, N-(4-(3-(4-methylphenylsulfonamido)phenyl)thiazol-2-yl)acetamide]
- tumor size (A375 melanoma cells): less than 100 mm^3

SMILES: CC1(COc2ccc(CC3SC(=O)NC3=O)cc2)CCCCC1 (stereo not shown) [ciglitazone, reference compound]
- cell viability (cells alive relative to DMSO) (prostate cells LNCAP): viability greatly reduced
- cell viability (cells alive relative to DMSO) (prostate cells PC3): viability greatly reduced
- cell viability (cells alive relative to DMSO) (breast cells MCF7): viability greatly reduced
- cell viability (cells alive relative to DMSO) (colon cells HT29): viability greatly reduced
- cell viability (cells alive relative to DMSO) [1]: viability greatly reduced
- cell viability (cells alive relative to DMSO) [2]: viability greatly reduced
